Measured values published in the supplement of paper PMC7580552.
Structures can show the parent of a compound that is named as a salt. This is one part of the list. Part of the spread comes from offsets between plates or batches.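 Biofilm, quantified by the absorbance of well-retained crystal violet, is assayed using the K-12 laboratory model grown unshaken in 96-well plates. Candidate specific biofilm inhibitors were drugs that sharply lowered staining yet reduced free-floating growth by less than 70%.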

What follows are compounds tested on Escherichia coli W3110 (assay: biofilm formation (crystal violet staining) relative to untreated control; higher = more biofilm). Details: 10 µM; 20-24 h; 30 °C; TB.

Compared with `NC(=O)N/N=C/c1ccc([N+](=O)[O-])o1` [Nitrofural], `O=C1OCCN1/N=C/c1ccc([N+](=O)[O-])o1` [Furazolidone] is lower in biofilm formation: 67% for the first, 58% for the second.

Compared with `O=c1oc2ccccc2c(O)c1Cc1c(O)c2ccccc2oc1=O` [Dicumarol], `CC(C(=O)O)c1ccc(N2Cc3ccccc3C2=O)cc1` (stereo unspecified) [Indoprofen] is higher in biofilm formation: 59% for the first, 68% for the second.

First: CN1CCN(CCCN2c3ccccc3Sc3ccc(Cl)cc32)CC1 [Prochlorperazine dimaleate]
Second: OCCN1CCN(CCCN2c3ccccc3Sc3ccc(C(F)(F)F)cc32)CC1 [Fluphenazine dihydrochloride]
The biofilm formation of the first is higher: 78% for the first, 72% for the second.

First: Cc1nc(=O)c2cc(CN(C)c3ccc(C(=O)N[C@@H](CCC(=O)O)C(=O)O)s3)ccc2[nH]1 [Raltitrexed]
Second: Cc1cc(CC(=O)O)n(C)c1C(=O)c1ccc(Cl)cc1 [Zomepirac sodium salt]
The biofilm formation of the first is higher: 93% for the first, 73% for the second.

`CN1CCN(c2c(F)cc3c(=O)c(C(=O)O)cn(CCF)c3c2F)CC1` [Fleroxacin] and `CCN1CCN(c2cc3c(cc2F)c(=O)c(C(=O)O)cn3C2CC2)CC1` [Enrofloxacin] are the same in biofilm formation: 15% for the first, 15% for the second.

Going from `C[C@H](CCC(=O)O)[C@H]1CC[C@H]2[C@@H]3[C@H](O)C[C@@H]4C[C@H](O)CC[C@]4(C)[C@H]3CC[C@]12C` [Chenodiol] to `C=C1/C(=C\C=C2/CCC[C@]3(C)[C@@H]([C@H](C)/C=C/[C@@H](O)C4CC4)CC[C@@H]23)C[C@@H](O)C[C@@H]1O` [Calcipotriene], the biofilm formation rises from 57% to 67%.

First: CC(=O)OCC(CCn1cnc2cnc(N)nc21)COC(C)=O [Famciclovir]
Second: O=C1CC2(CCCC2)CC(=O)N1CCCCN1CCN(c2ncccn2)CC1 [Buspirone hydrochloride]
The biofilm formation of the first is lower: 106% for the first, 114% for the second.

Going from `NNc1nncc2ccccc12` [Hydralazine hydrochloride] to `CC(C)NC[C@@H](O)COc1cccc2ccccc12` [(R)-Propranolol hydrochloride], the biofilm formation falls from 78% to 57%.

Compared with `COc1c2occc2c(OC)c2c(=O)cc(C)oc12` [Khellin], `CCN1CCC[C@H]1CNC(=O)c1c(OC)ccc(Br)c1OC` [Remoxipride Hydrochloride] is lower in biofilm formation: 94% for the first, 93% for the second.

Compared with `Nc1cc(C(Cl)=C(Cl)Cl)c(S(N)(=O)=O)cc1S(N)(=O)=O` [Clorsulon], `O=S(=O)(O)c1cc(O)ccc1O` [Ethamsylate] is lower in biofilm formation: 88% for the first, 60% for the second.

Going from `CC[C@H](C)C(=O)O[C@H]1CCC=C2C=C[C@H](C)[C@H](CC[C@@H]3C[C@@H](O)CC(=O)O3)[C@H]21` [Mevastatin] to `C[C@H]1C[C@@H]2[C@H]([C@@H](O)C[C@@]3(C)[C@H]2CC[C@]3(O)C(=O)CO)[C@@]2(C)C=CC(=O)C=C12` [Methylprednisolone, 6-alpha], the biofilm formation falls from 87% to 45%.

Going from `Cc1c(N(C)CS(=O)(=O)O)c(=O)n(-c2ccccc2)n1C` [Dipyrone] to `Nc1ccc(S(=O)(=O)Nc2ccnn2-c2ccccc2)cc1` [Sulfaphenazole], the biofilm formation falls from 86% to 47%.

Compared with `CC(NCCC(c1ccccc1)c1ccccc1)c1ccccc1` (stereo unspecified) [Fendiline hydrochloride], `CN(C)CCOc1ccc(/C(=C(/CCCl)c2ccccc2)c2ccccc2)cc1` [Toremifene] is lower in biofilm formation: 70% for the first, 65% for the second.

Compared with `O=c1[nH]c(=O)n(C2CCCO2)cc1F` (stereo unspecified) [Tegafur], `CCn1nc(C(=O)O)c(=O)c2cc3c(cc21)OCO3` [Cinoxacin] is lower in biofilm formation: 71% for the first, 31% for the second.

Compared with `CCN(CC)CCc1nc(-c2ccccc2)no1` [Oxalamine citrate salt], `c1ccc(CC2=NCCN2)cc1` [Tolazoline hydrochloride] is higher in biofilm formation: 63% for the first, 91% for the second.

Compared with `CNCC(O)c1ccc(OC(=O)C(C)(C)C)c(OC(=O)C(C)(C)C)c1` (stereo unspecified) [Dipivefrin hydrochloride], `CC(C)NCC(O)c1ccc(O)c(O)c1` (single isomer, unassigned; (+)) [(+)-Isoproterenol (+)-bitartrate salt] is lower in biofilm formation: 97% for the first, 59% for the second.

Compared with `CCCNCC(O)COc1ccccc1C(=O)CCc1ccccc1` (stereo unspecified) [Propafenone hydrochloride], `Oc1ccc(OCc2ccccc2)cc1` [Monobenzone] is lower in biofilm formation: 81% for the first, 60% for the second.

First: NC(=O)C(c1ccccc1)(c1ccccc1)[C@@H]1CCN(CCc2ccc3c(c2)CCO3)C1 [Darifenacin hydrobromide]
Second: COC(=O)[C@H](c1ccccc1Cl)N1CCc2sccc2C1 [Clopidogrel]
The biofilm formation of the first is higher: 92% for the first, 66% for the second.

First: COc1ccccc1OCC(O)CN1CCN(CC(=O)Nc2c(C)cccc2C)CC1 (stereo unspecified) [Ranolazine]
Second: Cc1ccc(Cl)c(Nc2ccccc2C(=O)O)c1Cl [Meclofenamic acid sodium salt monohydrate]
The biofilm formation of the first is higher: 80% for the first, 57% for the second.

First: COc1cc([C@@H]2c3cc4c(cc3[C@@H](O[C@@H]3O[C@@H]5CO[C@@H](C)O[C@H]5[C@H](O)[C@H]3O)[C@H]3COC(=O)[C@H]23)OCO4)cc(OC)c1O [Etoposide]
Second: CC[C@H]1OC(=O)[C@H](C)[C@@H](O[C@H]2C[C@@](C)(OC)[C@@H](O)[C@H](C)O2)[C@H](C)[C@@H](O[C@@H]2O[C@H](C)C[C@H](N(C)C)[C@H]2O)[C@](C)(O)C[C@@H](C)[C@@H]2N[C@@H](COCCOC)O[C@H]([C@H]2C)[C@]1(C)O [Dirithromycin]
The biofilm formation of the first is lower: 66% for the first, 69% for the second.

Going from `CC(C)NCC(O)c1ccc2ccccc2c1` (stereo unspecified) [Pronethalol hydrochloride] to `COc1ccc(CC(C)NCC(O)c2ccc(O)c(NC=O)c2)cc1` (stereo unspecified) [Formoterol fumarate], the biofilm formation rises from 73% to 120%.

First: Nc1nc2n[nH]nc2c(=O)[nH]1 [Azaguanine-8]
Second: Cc1nnc(NS(=O)(=O)c2ccc(N)cc2)s1 [Sulfamethizole]
The biofilm formation of the first is higher: 85% for the first, 34% for the second.

Going from `CN(C)c1nc(N(C)C)nc(N(C)C)n1` [Altretamine] to `Cc1cc(/C=C/c2ccc3cc(N(C)C)ccc3[n+]2C)c(C)n1-c1ccccc1` [Pyrvinium pamoate], the biofilm formation rises from 64% to 66%.

First: c1ccc([C@H]2CN3CCSC3=N2)cc1 [Levamisole hydrochloride]
Second: C[C@H](N[C@@H](CCc1ccccc1)C(=O)O)C(=O)N1CCC[C@H]1C(=O)O [Enalaprilat dihydrate]
The biofilm formation of the first is lower: 63% for the first, 65% for the second.

Going from `CCC(=O)O[C@]1(C(=O)CCl)[C@@H](C)C[C@H]2[C@@H]3CCC4=CC(=O)C=C[C@]4(C)[C@@]3(F)[C@@H](O)C[C@@]21C` [Clobetasol propionate] to `C[C@H]1C[C@H]2[C@@H]3CCC4=CC(=O)C=C[C@]4(C)[C@@]3(F)[C@@H](O)C[C@]2(C)[C@@]1(O)C(=O)CO` [Betamethasone], the biofilm formation falls from 83% to 53%.

Going from `CC1Cc2ccccc2N1NC(=O)c1ccc(Cl)c(S(N)(=O)=O)c1` (stereo unspecified) [Indapamide] to `O=C(O)COC(=O)Cc1ccccc1Nc1c(Cl)cccc1Cl` [Aceclofenac], the biofilm formation falls from 85% to 62%.

Compared with `O=C(NCC(O)CO)c1c(I)c(C(=O)NCC(O)CO)c(I)c(N(CCO)C(=O)CO)c1I` (stereo unspecified) [Ioversol], `C[C@H](O)C(=O)Nc1c(I)c(C(=O)NC(CO)CO)c(I)c(C(=O)NC(CO)CO)c1I` [Iopamidol] is higher in biofilm formation: 73% for the first, 101% for the second.

First: CO/N=C(\C(=O)N[C@@H]1C(=O)N2C(C(=O)O)=C(COC(N)=O)CS[C@H]12)c1ccco1 [Cefuroxime sodium salt]
Second: CCN1CCN(C(=O)N[C@@H](C(=O)N[C@@H]2C(=O)N3C(C(=O)O)=C(CSc4nnnn4C)CS[C@H]23)c2ccc(O)cc2)C(=O)C1=O [Cefoperazone dihydrate]
The biofilm formation of the first is lower: 6% for the first, 8% for the second.

Going from `CC(C)CC(=O)N[C@H](C(=O)N[C@H](C(=O)N[C@@H](CC(C)C)[C@@H](O)CC(=O)N[C@@H](C)C(=O)N[C@@H](CC(C)C)[C@@H](O)CC(=O)O)C(C)C)C(C)C` [Pepstatin A] to `COCCOC(=O)C1=C(C)NC(C)=C(C(=O)OC/C=C/c2ccccc2)C1c1cccc([N+](=O)[O-])c1` (stereo unspecified) [Cilnidipine], the biofilm formation falls from 85% to 81%.

First: O=C(O)/C=C/c1ccc(Cn2ccnc2)cc1 [Ozagrel hydrochloride]
Second: CC(C)(Oc1ccc(CCNC(=O)c2ccc(Cl)cc2)cc1)C(=O)O [Bezafibrate]
The biofilm formation of the first is higher: 76% for the first, 70% for the second.

Going from `CCCc1nc(C)c2c(=O)nc(-c3cc(S(=O)(=O)N4CCN(CC)CC4)ccc3OCC)[nH]n12` [Vardenafil] to `CCOC(=O)N1CCC(=C2c3ccc(Cl)cc3CCc3cccnc32)CC1` [Loratadine], the biofilm formation rises from 56% to 60%.

First: CCCCNc1ccc(C(=O)OCCOCCOCCOCCOCCOCCOCCOCCOCCOC)cc1 [Benzonatate]
Second: COCCCC/C(=N\OCCN)c1ccc(C(F)(F)F)cc1 [Fluvoxamine maleate]
The biofilm formation of the first is higher: 74% for the first, 60% for the second.

First: O=C(NCCO[N+](=O)[O-])c1cccnc1 [Nicorandil]
Second: Cc1cnc(NC(=O)C2=C(O)c3ccccc3S(=O)(=O)N2C)s1 [Meloxicam]
The biofilm formation of the first is lower: 47% for the first, 57% for the second.

Going from `COC(=O)Nc1nc2ccc(SC(C)C)cc2[nH]1` [Methiazole] to `CC1=Nc2ccc(Cl)cc2S(=O)(=O)N1` [Diazoxide], the biofilm formation falls from 67% to 54%.

First: CN(C)[C@@H]1C(O)=C(C(N)=O)C(=O)[C@@]2(O)C(O)=C3C(=O)c4c(O)cccc4[C@@](C)(O)[C@H]3C[C@@H]12 [Tetracycline hydrochloride]
Second: C[C@]12CCC(=O)C=C1CC[C@@H]1[C@@H]2C(=O)C[C@@]2(C)[C@H]1CC[C@]2(O)C(=O)CO [Cortisone]
The biofilm formation of the first is lower: 22% for the first, 56% for the second.

`CC(=O)[C@@]12O[C@](C)(c3ccccc3)O[C@@H]1C[C@H]1[C@@H]3CCC4=CC(=O)CC[C@]4(C)[C@H]3CC[C@@]12C` [Algestone acetophenide] was tested, and the biofilm formation was 63%.
